Experimental data reported in article PMC6282339.
These are yes or no findings as the source states them, for the method shown. In cells and extracts the contact can be indirect. Some entries that bind do so weakly or less than the wild type. For some of these results: Where a sequence is shown, tags or fusion partners need not be part of it.

Chains of the proteins cited; added tags and fusions are not shown.
UniProt O75563: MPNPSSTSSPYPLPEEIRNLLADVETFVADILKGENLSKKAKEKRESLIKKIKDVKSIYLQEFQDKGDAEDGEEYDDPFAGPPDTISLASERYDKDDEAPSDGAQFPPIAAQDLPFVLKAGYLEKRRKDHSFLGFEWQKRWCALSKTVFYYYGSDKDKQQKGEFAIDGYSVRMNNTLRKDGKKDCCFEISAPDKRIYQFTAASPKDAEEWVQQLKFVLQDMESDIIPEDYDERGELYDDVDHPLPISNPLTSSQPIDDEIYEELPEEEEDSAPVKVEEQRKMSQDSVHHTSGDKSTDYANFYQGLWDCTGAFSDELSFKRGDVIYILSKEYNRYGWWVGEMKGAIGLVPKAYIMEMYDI

Columns and labels:
[1] = biological target: SKAP2, Flag-tagged or GFP-tagged copy (UniProt O75563); test: co-IP; Flag- and GFP-tagged proteins co-expressed in 293T cells; Triton X-100 lysis; anti-Flag precipitation with protein G-Sepharose, 1-2 h at 4 °C; blotted with anti-Flag or anti-GFP
[2] = biological target: SKAP1 (SKAP-55), wild type, Flag-tagged or GFP-tagged copy (UniProt Q86WV1); test: co-IP; Combinations of Flag- and GFP-tagged SKAP1 expressed in 293T cells; anti-Flag precipitation; blotted with anti-SKAP1
[3] = biological target: SKAP1 (SKAP-55), wild type, Flag-tagged or GFP-tagged copy (UniProt Q86WV1); test: co-IP; GFP-SKAP1, Flag-SKAP1 (wild type or A17/F20/L21 mutant) and V5-RapL co-expressed in 293T cells; precipitation with anti-Flag, anti-GFP or anti-V5
[4] = biological target: SKAP1 (SKAP-55), wild type, Flag-tagged or GFP-tagged copy (UniProt Q86WV1); test: co-IP; Flag- and GFP-tagged proteins co-expressed in 293T cells; Triton X-100 lysis; anti-Flag precipitation with protein G-Sepharose, 1-2 h at 4 °C; blotted with anti-Flag or anti-GFP

Row | Molecule | binding [1] | binding [2] | binding [3] | binding [4]
1 | SKAP2, Flag-tagged or GFP-tagged copy (from UniProt O75563 1-359) | binds | – | – | –
2 | SKAP1 (SKAP-55), wild type, Flag-tagged or GFP-tagged copy (protein, UniProt Q86WV1 1-359) MQAAALPEEIRWLLEDAEEFLAEGLRNENLSAVARDHRDHILRGFQQIKARYYWDFQPQGGDIGQDSSDDNHSGTLGLSLTSDAPFLSDYQDEGMEDIVKGAQELDNVIKQGYLEKKSKDHSFFGSEWQKRWCVVSRGLFYYYANEKSKQPKGTFLIKGYGVRMAPHLRRDSKKESCFELTSQDRRSYEFTATSPAEARDWVDQISFLLKDLSSLTIPYEEDEEEEEKEETYDDIDGFDSPSCGSQCRPTILPGSVGIKEPTEEKEEEDIYEVLPDEEHDLEEDESGTRRKGVDYASYYQGLWDCHGDQPDELSFQRGDLIRILSKEYNMYGWWVGELNSLVGIVPKEYLTTAFEVEER | – | binds | binds | binds
